PubChem BioAssay AID1259405 – NCATS | 2018
Aim: 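Silenced genes that increase secreted GFP made by CHO cells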 (primary screen). Cell system: Chinese hamster CHO-K1 ovary cells with stable secreted eGFP expression. Reagent: single siRNA against mouse genes, 0.8 pmol siRNA per well (2 µl of 400 nM stock). Timing: 3 days. Read-out: 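Per-well intracellular GFP measured by laser scanning cytometry, plus viability from ATP luminescence, each relative to plate median of non-targeting control wells, in %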. Direction: GFP, % of control: higher = more GFP per well, higher productivity; viability (ATP), % of control: higher = more viable cells (more ATP). Hit rule: 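a knock-down is called active if GFP reaches 120% or more of non-targeting control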.
This is an unselected part of about 50,000 reagents tested. About 4,000 of them (8%) were called active. 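Mouse siRNA library applied to hamster cells; one well for each siRNA.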 The numbers tell different reagents against one gene apart. No sequences are given here.

| gene | reagent no. | GFP, % of control | viability (ATP), % of control | Outcome |
| --- | --- | --- | --- | --- |
| Rsl1d1 (GeneID 66409) | 1 | 133 | 68.5 | active |
| Rsl1d1 (GeneID 66409) | 2 | 97.5 | 63.7 | inactive |
| Rsl1d1 (GeneID 66409) | 3 | 56.7 | 68.2 | inactive |
| Stxbp1 (GeneID 20910) | 1 | 133 | 54 | active |
| Stxbp1 (GeneID 20910) | 2 | 36.7 | 31.6 | inactive |
| Stxbp1 (GeneID 20910) | 3 | 78.7 | 71.4 | inactive |
| Dnm2 (GeneID 13430) | 1 | 73.5 | 82.7 | inactive |
| Dnm2 (GeneID 13430) | 2 | 42.4 | 46.2 | inactive |
| Dnm2 (GeneID 13430) | 3 | 62.8 | 56.7 | inactive |
| Mdh2 (GeneID 17448) | 1 | 63.2 | 86.4 | inactive |
| Mdh2 (GeneID 17448) | 2 | 75 | 71.5 | inactive |
| Mdh2 (GeneID 17448) | 3 | 83.6 | 127 | inactive |

Continued; the last 3 above are carried over.
| gene | reagent no. | GFP, % of control | viability (ATP), % of control | Outcome |
| --- | --- | --- | --- | --- |
| Mdh2 (GeneID 17448) | 1 | 63.2 | 86.4 | inactive |
| Mdh2 (GeneID 17448) | 2 | 75 | 71.5 | inactive |
| Mdh2 (GeneID 17448) | 3 | 83.6 | 127 | inactive |
| Ctbs (GeneID 74245) | 1 | 111 | 98.3 | inactive |
| Ctbs (GeneID 74245) | 2 | 120 | 111 | inactive |
| Ctbs (GeneID 74245) | 3 | 72.9 | 63.2 | inactive |
| Zfp668 (GeneID 244219) | 1 | 48.3 | 50.6 | inactive |
| Zfp668 (GeneID 244219) | 2 | 78.2 | 69.5 | inactive |
| Zfp668 (GeneID 244219) | 3 | 83.1 | 86.9 | inactive |
| Trpa1 (GeneID 277328) | 1 | 84.9 | 46 | inactive |
| Trpa1 (GeneID 277328) | 2 | 86.5 | 88 | inactive |
| Trpa1 (GeneID 277328) | 3 | 130 | 75 | active |
| Bcl11a (GeneID 14025) | 1 | 54.5 | 62.8 | inactive |
| Bcl11a (GeneID 14025) | 2 | 94.5 | 77.6 | inactive |
| Bcl11a (GeneID 14025) | 3 | 68 | 99 | inactive |
| Adcy5 (GeneID 224129) | 1 | 76.5 | 82.1 | inactive |
| Adcy5 (GeneID 224129) | 2 | 56.4 | 44.1 | inactive |
| Adcy5 (GeneID 224129) | 3 | 108 | 95 | inactive |
| Krt34 (GeneID 16672) | 1 | 118 | 89.1 | inactive |
| Krt34 (GeneID 16672) | 2 | 45.6 | 69 | inactive |
| Kif9 (GeneID 16578) | 1 | 48.5 | 64.4 | inactive |
| Kif9 (GeneID 16578) | 2 | 57.1 | 66.7 | inactive |
| Kif9 (GeneID 16578) | 3 | 119 | 46.8 | inactive |
| Pcmtd1 (GeneID 319263) | 1 | 72.4 | 83.3 | inactive |
| Pcmtd1 (GeneID 319263) | 2 | 94.2 | 61 | inactive |
| Pcmtd1 (GeneID 319263) | 3 | 57.9 | 66.7 | inactive |
